{
  "source": "patent US10800834B2",
  "about": "“HER-1, HER-3 and IGF-1R compositions and uses thereof” (OHIO STATE INNOVATION FOUNDATION, priority 2013, dated 2020)",
  "test_system": "New Zealand white outbred rabbits",
  "assay": "Immunogenicity of MVF HER-3 peptide constructs in rabbits (ELISA titers)",
  "type": "in vivo, rabbit",
  "details": "three weeks after the third immunization",
  "description": "Two female New Zealand white outbred rabbits (Harlan) were immunized intramuscularly with 1 mg of MVF HER-3 (237-269) or MVF HER-3 (461-479) peptide dissolved in 500 μL PBS and emulsified in 500 μL of Montanide ISA720 vehicle with 100 μg muramyl dipeptide adjuvant, nor-MDP (N-acetylglucosamine-3yl-acetyl-L-alanyl-D-isoglutamine). Subsequent booster injections were given every three weeks after primary immunization. Sera of rabbits immunized with either MVF peptide were collected weekly, and complement was inactivated by heating to 56° C. for 30 minutes. The titer of anti-HER-3 peptide antibodies were quantified by ELISA. The MVF HER-3 (237-269) and MVF HER-3 (461-479) peptides were highly immunogenic by three weeks after the third immunization. Antibody titers against MVF HER-3 (461-479) and MVF HER-3 (237-269) were ≥32,000 and ≥128,000, respectively (FIGS. 9 A & B). High antibody titers were also generated against B cell epitope constructs. HER-3 (461-479) and HER-3 (237-269) antibody titers were ≥16,000 and ≥128,000, respectively (Data not shown). Total IgG was purified from high-titered sera on a protein A/G column (Pierce, Rockford, Ill.) and eluted antibodies were concentrated and exchanged in PBS using 100 kDa cutoff centrifuge filter units (Millipore). Antibody concentrations were determined by Coomassie plus protein assay reagent kit (Pierce).",
  "note": "Some entries share one result that the patent states for a list of compounds.",
  "data": [
    {"substance": "MVF HER-3 (237-269): HER-3 (237-269) synthesized collinearly with modified MVF epitope (SEQ ID NO:12) and GPSL linker (KLLSLIKGVIVHRLEGVEGPSLVPRCPQPLVYNKLTFQLEPNPHTKYQYGGVCVA)", "values": [
      {"measurement": "Antibody titers against MVF peptide", "result": "≥ 128,000"}
    ]}
  ]
}
